Experimental data taken from PubChem BioAssay AID588590 (National Center for Advancing Translational Sciences (NCATS), 2011).
Values joined by “and” are separate entries in the source; they are usually repeats but may differ in a detail not shown here. Equal values may be shown once. In all, about 390,000 compounds went through this assay and about 4,000 (1%) were called active. Inconclusive results, whose numbers are uncertain, are shown with a selection of clear calls. Calls follow the shape of the dose curve; as a rule, active = well fitted inhibition curve with a large enough effect; inconclusive = small, poorly fitted or top-dose-only effect, or another doubt; inactive = no such curve, though single readings can be large or run the other way. Potencies beside an inconclusive call are fits to weak or partial responses and may not hold up. Some structures have more than one record in an assay (separate samples or runs), and their calls can disagree.

By UniProt entry, the sequences of proteins in these tests, tags left out. Where a name states a change or a piece, a line headed by the entry shows the natural chain unless it says otherwise.
UniProt Q9UNA4: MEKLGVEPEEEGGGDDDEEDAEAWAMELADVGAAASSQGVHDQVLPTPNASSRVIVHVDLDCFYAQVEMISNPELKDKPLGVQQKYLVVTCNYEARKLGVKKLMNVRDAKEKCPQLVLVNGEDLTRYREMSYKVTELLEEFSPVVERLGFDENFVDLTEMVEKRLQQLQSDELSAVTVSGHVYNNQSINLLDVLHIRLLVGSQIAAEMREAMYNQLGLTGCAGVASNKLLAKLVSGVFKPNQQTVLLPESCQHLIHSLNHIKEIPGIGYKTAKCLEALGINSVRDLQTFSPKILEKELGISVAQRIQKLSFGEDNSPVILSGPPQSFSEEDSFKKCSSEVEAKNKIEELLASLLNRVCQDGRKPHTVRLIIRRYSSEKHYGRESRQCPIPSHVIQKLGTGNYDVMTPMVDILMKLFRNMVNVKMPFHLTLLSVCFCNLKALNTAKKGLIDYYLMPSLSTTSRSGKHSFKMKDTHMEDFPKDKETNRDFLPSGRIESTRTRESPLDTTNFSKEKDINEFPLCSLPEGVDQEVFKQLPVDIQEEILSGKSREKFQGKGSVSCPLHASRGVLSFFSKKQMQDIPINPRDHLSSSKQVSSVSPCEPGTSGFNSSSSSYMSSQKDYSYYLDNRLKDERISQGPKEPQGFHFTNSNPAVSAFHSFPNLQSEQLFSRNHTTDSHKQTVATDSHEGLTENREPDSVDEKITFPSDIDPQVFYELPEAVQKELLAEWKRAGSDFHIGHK

These molecules were tested against DNA polymerase iota (Homo sapiens) (UniProt Q9UNA4) (assay: qHTS for Inhibitors of Polymerase Iota). Details: Pol iota fluorescent replication assay, 10 min; series mostly up to 115 µM; activity, negative = inhibition: at the top concentration.
Method in brief: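 Pol iota at 10 nM preincubated 15 min with compounds at room temperature; reaction started with fluorescent substrate, 50 nM final. Fluorescence read kinetically at 0 and 10 min; buffer-only wells as negative control.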
Potency is read from the fitted curve at half-maximal effect.

**Q.** With CC(C)(C)OC(=O)N1CCCC1C(=O)NC1COC2CC(n3cc(F)c(=O)[nH]c3=O)OC12 (centres undefined) as the molecule, how does the “activity, negative = inhibition” value read?
**A.** inactive: -2.07%

**Q.** How did the Potency turn out when COC(=O)c1ccccc1NC(=O)c1ccc2nccnc2c1 was run?
**A.** inconclusive: 11.2 µM [inhibitor, full curve, poor fit]

**Q.** How did the Potency turn out when Cc1ccc(S(=O)(=O)N2CCN(CCOc3cccc(C)c3)CC2)cc1 was run?
**A.** inconclusive: 35.5 µM [inhibitor, partial curve, poor fit]

**Q.** With O=[N+]([O-])c1ccc(N2N=C(c3ccco3)CC2c2ccccc2)cc1 (centres undefined) as the molecule, how does the Potency read?
**A.** inconclusive: 56.2 µM [inhibitor, partial curve, poor fit]

**Q.** CCOc1ccccc1CNC(=O)c1cc2n(n1)CCCN(Cc1ccc(C)cc1)C2=O was tested. Which Potency did it give?
**A.** inconclusive: 89.1 µM [inhibitor, single point]

**Q.** How did the Potency turn out when CCCCn1c(N)c(N(CC(C)C)C(=O)C2CCN(S(=O)(=O)c3ccc(C)c(C)c3)CC2)c(=O)[nH]c1=O was run?
**A.** inconclusive: 100 µM [inhibitor, single point]

**Q.** With COc1cc(OC)c(NC2(c3ccccc3)C(=O)c3ccccc3C2=O)cc1Cl as the molecule, how does the “activity, negative = inhibition” value read?
**A.** inactive: -7.5%

**Q.** For CCn1c2ccccc2c2cc(CN3CCN(Cc4ccccc4Cl)CC3)ccc21, which “activity, negative = inhibition” value is on record?
**A.** inactive: 10.3%

**Q.** For Cc1ccc(-n2c(C)cc(/C=N/NC(=O)CC3(C)OCCO3)c2C)c(C)c1, which Potency is on record?
**A.** inconclusive: 28.2 µM [inhibitor, partial curve, poor fit]

**Q.** For Cc1nnc(Sc2cc(C(=O)NCc3ccco3)c3ccccc3n2)s1, which Potency is on record?
**A.** inconclusive: 11.2 µM [inhibitor, partial curve, poor fit]

**Q.** For Cc1csc(NC(=O)CCc2nc3ccccc3s2)n1, which Potency is on record?
**A.** inconclusive: 39.8 µM [inhibitor, partial curve, poor fit]

**Q.** CCOc1ccc(C(=O)N/N=C/c2ccc(-c3ccc(S(=O)(=O)Nc4ncccn4)cc3)o2)cc1 was tested. Which Potency did it give?
**A.** active: 17.8 µM

**Q.** With O=C(O)CP(=O)(O)O as the molecule, how does the Potency read?
**A.** inactive and active: 12.6 µM

**Q.** Which Potency does the source give for C[C@H](NC(=O)OC(C)(C)C)c1nnc(SCc2c(F)cccc2Cl)o1 here?
**A.** inconclusive: 89.1 µM [inhibitor, single point]

**Q.** How did the Potency turn out when COc1cc(/C=C2\C(=O)N(CCC#N)N=C2C)c(Br)cc1OC(C)C was run?
**A.** inconclusive: 1.41 µM [inhibitor, full curve, poor fit]

**Q.** Which Potency does the source give for CCOC(=O)c1c(NC(=S)NC(=O)c2ccc(Cn3cc(Cl)cn3)o2)sc2c1CCC(C)C2 (centres undefined) here?
**A.** inconclusive: 12.6 µM [inhibitor, full curve, poor fit]

**Q.** With COc1ccc(CCN2CC(C(=O)NCc3ccco3)CC2=O)cc1OC (centres undefined) as the molecule, how does the Potency read?
**A.** inconclusive: 56.2 µM [inhibitor, partial curve, poor fit]

**Q.** How did the “activity, negative = inhibition” value turn out when Cc1nnc(NC(=O)C2CCN(S(=O)(=O)c3cc([N+](=O)[O-])ccc3Cl)CC2)o1 was run?
**A.** inactive: 18.2%

**Q.** How did the Potency turn out when CCN(C(=O)c1coc(=O)c(Br)c1)c1ccc2c(c1)OCO2 was run?
**A.** inconclusive: 35.5 µM [inhibitor, single point]

**Q.** Which Potency does the source give for Cn1c(CO)cnc1S(=O)(=O)Cc1ccc(Cl)cc1 here?
**A.** inconclusive: 89.1 µM [inhibitor, single point]

**Q.** Which Potency does the source give for COc1cccc(/C=C2\Oc3cc(OCC(=O)N4Cc5ccccc5C[C@H]4C(=O)O)ccc3C2=O)c1 here?
**A.** inconclusive: 5.62 µM [inhibitor, partial curve]

**Q.** O=C(c1ccc(CS(=O)(=O)c2ccccc2)o1)N1CCN(c2ccccc2)CC1 was tested. Which Potency did it give?
**A.** inconclusive: 50.1 µM [inhibitor, partial curve, poor fit]

**Q.** For Cc1cccc(-n2c(C)cc(/C=N/NC(=O)c3cccc([N+](=O)[O-])c3C)c2C)c1, which Potency is on record?
**A.** inconclusive: 39.8 µM [inhibitor, single point]

**Q.** For Nc1nnc(CC(=O)N/N=C/c2ccc(-c3ccc(F)cc3)o2)s1, which Potency is on record?
**A.** inconclusive: 79.4 µM [inhibitor, partial curve, poor fit]

**Q.** Which Potency does the source give for Cn1ccc2cc3c(cc21)CCN3C(=O)Nc1cccnc1 here?
**A.** inconclusive: 0.0398 µM [inhibitor, full curve, poor fit]

**Q.** Which Potency does the source give for CCOC(=O)c1nc(Nc2ccc(C(C)=O)cc2)c2ccccc2n1 here?
**A.** inconclusive: 31.6 µM [inhibitor, full curve, poor fit]

**Q.** For CC(SC1=NCCS1)C(=O)Nc1nnc(-c2ccc(Cl)cc2)s1 (centres undefined), which Potency is on record?
**A.** inconclusive: 31.6 µM [inhibitor, single point]

**Q.** Which Potency does the source give for Cc1cnc(C(=O)NCCc2ccc(Cl)cc2)cn1 here?
**A.** inconclusive: 56.2 µM [inhibitor, partial curve, poor fit]

**Q.** O/N=C1\CCCc2ccc3ccccc3c21 was tested. Which Potency did it give?
**A.** inconclusive: 39.8 µM [inhibitor, partial curve, poor fit]

**Q.** For COc1ccc(-n2ccc(=O)c(C(=O)Nc3ccc(S(=O)(=O)Nc4nccs4)cc3)n2)cc1, which Potency is on record?
**A.** inconclusive: 56.2 µM [inhibitor, partial curve, poor fit]

**Q.** How did the Potency turn out when Cc1cc(C(=O)CSc2nnc(-c3ccco3)o2)c(C)n1Cc1ccco1 was run?
**A.** inconclusive: 35.5 µM [inhibitor, partial curve, poor fit]

**Q.** Which Potency does the source give for CN(C)C(CNC(=O)C1CCCN1C(=O)c1cccs1)c1ccccc1 (centres undefined) here?
**A.** inconclusive: 89.1 µM [inhibitor, partial curve, poor fit]

**Q.** How did the Potency turn out when Cc1ccc(C)n1N1C(=O)/C(=C\c2ccc(Cl)cc2)SC1=S was run?
**A.** inconclusive: 25.1 µM [inhibitor, full curve, poor fit]

**Q.** How did the Potency turn out when Cc1ccc(C)c(CN2CCC(CNC(=O)Nc3ccc(Br)cc3F)CC2)c1 was run?
**A.** inconclusive: 63.1 µM [inhibitor, partial curve, poor fit]

**Q.** Which “activity, negative = inhibition” value does the source give for Cc1ccc(C)c(CNC(=O)c2ccc3c(c2)nc2n3CCCCC2)c1 here?
**A.** inactive: -1.59%

**Q.** Which “activity, negative = inhibition” value does the source give for COc1ccc(S(=O)(=O)NCCCO)cc1-c1nnc2c3ccccc3c(C)nn12 here?
**A.** inactive: -2.41%

**Q.** With CCN(CC)S(=O)(=O)c1cc(C(=O)O)c(Cl)cc1Cl as the molecule, how does the “activity, negative = inhibition” value read?
**A.** inactive: -10.2%

**Q.** With C=CCn1c(-c2ccccc2)n[nH]c1=S as the molecule, how does the Potency read?
**A.** inconclusive: 31.6 µM [inhibitor, single point]

**Q.** With CC1CCc2c(sc3nc(C4CC4)nc(N4CCN(C(=O)c5ccco5)CC4)c23)C1 (centres undefined) as the molecule, how does the Potency read?
**A.** inconclusive: 10 µM [inhibitor, partial curve, poor fit]

**Q.** Which Potency does the source give for COC(=O)[C@@H](NC(=O)NCc1cccs1)C(C)C here?
**A.** inconclusive: 70.8 µM [inhibitor, partial curve, poor fit]

**Q.** COc1ccc(NS(=O)(=O)c2cccc(C(=O)O)c2)cc1S(=O)(=O)N1CCCCC1 was tested. Which Potency did it give?
**A.** inconclusive: 0.631 µM [inhibitor, full curve, poor fit]

**Q.** With COc1cc(NC(=O)c2cc3nc(C)cc(C)n3n2)c(OC)cc1Cl as the molecule, how does the Potency read?
**A.** inconclusive: 56.2 µM [inhibitor, partial curve, poor fit]

**Q.** Which Potency does the source give for O=[N+]([O-])c1ccc(NN=Cc2cc(Br)ccc2O)nc1 here?
**A.** inconclusive: 31.6 µM [inhibitor, single point]

**Q.** Which “activity, negative = inhibition” value does the source give for CCc1ccc(N2CC(C(=O)NC3CC3)CC2=O)cc1 (centres undefined) here?
**A.** inactive: 85.7%

**Q.** For O=C(Cc1ccc(F)cc1)NC(Cc1c[nH]c2ccccc12)C(=O)O (centres undefined), which “activity, negative = inhibition” value is on record?
**A.** inactive: -1.16%

**Q.** For Cc1ccc(CNC(=O)CSc2nc3[nH]ncc3c(=O)[nH]2)cc1, which “activity, negative = inhibition” value is on record?
**A.** inactive: 175%

**Q.** Which Potency does the source give for COc1ccc(C(=O)/C=C/c2cc(C(=O)O)cc3c2OCOC3)c(O)c1 here?
**A.** inconclusive: 8.91 µM [inhibitor, full curve, poor fit]

**Q.** CCOC(=O)c1sc(N2C(=O)c3oc4ccc(F)cc4c(=O)c3C2c2ccc(C)cc2)nc1C (centres undefined) was tested. Which “activity, negative = inhibition” value did it give?
**A.** inactive: 14.5%

**Q.** How did the Potency turn out when Cc1ccc2sc3ccc(NC(=O)c4ccccc4Cl)cc3c(=O)c2c1 was run?
**A.** inconclusive: 12.6 µM [inhibitor, full curve]

**Q.** For Cc1cccc(Oc2c(C=O)c3ccccc3n2C)c1, which Potency is on record?
**A.** inconclusive: 3.98 µM [inhibitor, partial curve, poor fit]

**Q.** How did the “activity, negative = inhibition” value turn out when COc1cc(/C=N/Nc2ccc(F)cc2F)cc(OC)c1O was run?
**A.** inactive: -4.53%

**Q.** How did the Potency turn out when CCN1C(=O)[C@H]2[C@H]3CN=C(SCc4ccc(C#N)cc4)N3[C@@](Cc3ccccc3)(C(=O)OC)[C@H]2C1=O was run?
**A.** inconclusive: 14.1 µM [inhibitor, single point]

**Q.** CCOC(=O)c1sc(=S)n(-c2ccccc2)c1C was tested. Which “activity, negative = inhibition” value did it give?
**A.** inactive: 1.57%

**Q.** Which “activity, negative = inhibition” value does the source give for CCC(Cc1ccccc1)NC(=O)CCc1ccccc1 (centres undefined) here?
**A.** inactive: 128%

**Q.** How did the Potency turn out when COc1ccc(CNc2nn[nH]n2)cc1OC was run?
**A.** inconclusive: 79.4 µM [inhibitor, single point]

**Q.** Which Potency does the source give for COC(=O)C1=C(C)N(c2ccc(C(=O)OC)cc2)C(=O)C1 here?
**A.** inconclusive: 12.6 µM [inhibitor, partial curve, poor fit]

**Q.** Which “activity, negative = inhibition” value does the source give for CCS(=O)(=O)c1ccc(O)c(NC(=O)c2ccc(S(=O)(=O)N3CCCCCC3)cc2)c1 here?
**A.** inactive: -6.01%

**Q.** How did the Potency turn out when COc1cccc(NC(=S)N(Cc2ccc(C(=O)O)cc2)Cc2ccc(OC)c(OC)c2)c1 was run?
**A.** inconclusive: 89.1 µM [inhibitor, partial curve, poor fit]

**Q.** With C=C1C=C(C)n2ncc(C(=O)N(CCc3ccccc3)Cc3ccccc3)c2N1 as the molecule, how does the “activity, negative = inhibition” value read?
**A.** inactive: 40.5%

**Q.** For C/C=C(\C)C(=O)NCCN1C2=NC[C@H](Cc3ccc(O)cc3)N2C[C@H]1Cc1ccc(O)cc1, which “activity, negative = inhibition” value is on record?
**A.** inactive: 0.559%

**Q.** How did the Potency turn out when N#CC(C#N)=C(N)/C(C#N)=C/c1cc(O)c(O)c(O)c1 was run?
**A.** inconclusive: 15.8 µM [inhibitor, full curve, poor fit]

**Q.** With Cc1cccc(OCCSc2nc(N)cc(N)n2)c1 as the molecule, how does the Potency read?
**A.** inconclusive: 39.8 µM [inhibitor, single point]

**Q.** How did the Potency turn out when COC(=O)C1=C(C)N(C)C(=O)NC1c1cc2c(cc1[N+](=O)[O-])OCO2 (centres undefined) was run?
**A.** inconclusive: 8.91 µM [inhibitor, single point]

**Q.** How did the Potency turn out when CCC(C)[C@H](NC(=O)C1CCN(C(=O)[C@H](Cc2ccccc2)NC(=O)OC(C)(C)C)CC1)C(=O)O (some centres undefined) was run?
**A.** inconclusive: 10 µM [inhibitor, partial curve]
